# Read-outs that look alike come from different tables or passages of the source. No constants are given. Whether binding was seen depends on the method and setting. Binding seen in cells or lysates may run through a third protein. Some binding calls cover weakened binding; strength is not graded here. For some assays here: Sequences can lack the tags named with a protein.
# The chains behind the UniProt entries cited, without tags or fusion partners.
# UniProt P19658: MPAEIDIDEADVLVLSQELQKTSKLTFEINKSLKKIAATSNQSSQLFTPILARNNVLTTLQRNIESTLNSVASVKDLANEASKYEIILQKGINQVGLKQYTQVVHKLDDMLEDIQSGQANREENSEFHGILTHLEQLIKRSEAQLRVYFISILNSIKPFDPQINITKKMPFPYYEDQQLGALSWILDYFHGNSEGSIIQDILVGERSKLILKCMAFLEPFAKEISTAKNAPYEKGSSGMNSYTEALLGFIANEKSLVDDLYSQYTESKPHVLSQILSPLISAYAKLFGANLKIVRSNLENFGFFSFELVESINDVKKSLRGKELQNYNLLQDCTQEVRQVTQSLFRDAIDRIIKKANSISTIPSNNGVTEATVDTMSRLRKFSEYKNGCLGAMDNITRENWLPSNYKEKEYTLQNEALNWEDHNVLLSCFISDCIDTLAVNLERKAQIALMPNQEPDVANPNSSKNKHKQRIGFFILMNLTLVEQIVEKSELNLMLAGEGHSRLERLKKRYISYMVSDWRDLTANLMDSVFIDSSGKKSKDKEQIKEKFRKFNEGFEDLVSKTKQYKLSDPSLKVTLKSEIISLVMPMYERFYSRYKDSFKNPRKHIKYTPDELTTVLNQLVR
# UniProt P38261: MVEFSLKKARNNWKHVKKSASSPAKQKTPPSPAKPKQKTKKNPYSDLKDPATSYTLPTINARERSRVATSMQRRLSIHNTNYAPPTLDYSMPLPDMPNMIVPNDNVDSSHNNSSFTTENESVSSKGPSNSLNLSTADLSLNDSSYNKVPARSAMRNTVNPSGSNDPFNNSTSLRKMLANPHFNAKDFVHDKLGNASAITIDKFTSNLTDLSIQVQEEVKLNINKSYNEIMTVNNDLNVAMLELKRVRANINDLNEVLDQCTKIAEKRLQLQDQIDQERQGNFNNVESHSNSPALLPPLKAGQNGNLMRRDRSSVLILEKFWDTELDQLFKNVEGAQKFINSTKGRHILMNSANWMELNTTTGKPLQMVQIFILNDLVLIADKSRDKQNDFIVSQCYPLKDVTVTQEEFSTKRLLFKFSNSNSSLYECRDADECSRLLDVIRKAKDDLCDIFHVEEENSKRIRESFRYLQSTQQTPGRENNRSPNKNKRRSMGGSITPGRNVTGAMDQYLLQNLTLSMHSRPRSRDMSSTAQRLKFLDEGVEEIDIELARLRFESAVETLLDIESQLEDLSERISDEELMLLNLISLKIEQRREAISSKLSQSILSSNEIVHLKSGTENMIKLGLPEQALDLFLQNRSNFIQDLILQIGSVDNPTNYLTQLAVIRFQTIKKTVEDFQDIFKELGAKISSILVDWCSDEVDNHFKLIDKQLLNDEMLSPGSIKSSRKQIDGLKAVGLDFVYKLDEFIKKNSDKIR
# UniProt P19073: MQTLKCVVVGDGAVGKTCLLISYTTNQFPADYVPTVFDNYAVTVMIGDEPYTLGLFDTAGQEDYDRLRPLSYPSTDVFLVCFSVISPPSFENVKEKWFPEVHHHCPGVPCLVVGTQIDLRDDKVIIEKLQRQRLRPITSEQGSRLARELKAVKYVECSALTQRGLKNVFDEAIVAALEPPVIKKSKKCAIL
# T1: GST-SH3_(Boi1) (S. cerevisiae) (UniProt P38041)
# T1 sequence: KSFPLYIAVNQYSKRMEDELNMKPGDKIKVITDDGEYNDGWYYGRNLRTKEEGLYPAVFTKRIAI
# T2: Boi2CRU (S. cerevisiae) (UniProt P39969)
# T2 sequence: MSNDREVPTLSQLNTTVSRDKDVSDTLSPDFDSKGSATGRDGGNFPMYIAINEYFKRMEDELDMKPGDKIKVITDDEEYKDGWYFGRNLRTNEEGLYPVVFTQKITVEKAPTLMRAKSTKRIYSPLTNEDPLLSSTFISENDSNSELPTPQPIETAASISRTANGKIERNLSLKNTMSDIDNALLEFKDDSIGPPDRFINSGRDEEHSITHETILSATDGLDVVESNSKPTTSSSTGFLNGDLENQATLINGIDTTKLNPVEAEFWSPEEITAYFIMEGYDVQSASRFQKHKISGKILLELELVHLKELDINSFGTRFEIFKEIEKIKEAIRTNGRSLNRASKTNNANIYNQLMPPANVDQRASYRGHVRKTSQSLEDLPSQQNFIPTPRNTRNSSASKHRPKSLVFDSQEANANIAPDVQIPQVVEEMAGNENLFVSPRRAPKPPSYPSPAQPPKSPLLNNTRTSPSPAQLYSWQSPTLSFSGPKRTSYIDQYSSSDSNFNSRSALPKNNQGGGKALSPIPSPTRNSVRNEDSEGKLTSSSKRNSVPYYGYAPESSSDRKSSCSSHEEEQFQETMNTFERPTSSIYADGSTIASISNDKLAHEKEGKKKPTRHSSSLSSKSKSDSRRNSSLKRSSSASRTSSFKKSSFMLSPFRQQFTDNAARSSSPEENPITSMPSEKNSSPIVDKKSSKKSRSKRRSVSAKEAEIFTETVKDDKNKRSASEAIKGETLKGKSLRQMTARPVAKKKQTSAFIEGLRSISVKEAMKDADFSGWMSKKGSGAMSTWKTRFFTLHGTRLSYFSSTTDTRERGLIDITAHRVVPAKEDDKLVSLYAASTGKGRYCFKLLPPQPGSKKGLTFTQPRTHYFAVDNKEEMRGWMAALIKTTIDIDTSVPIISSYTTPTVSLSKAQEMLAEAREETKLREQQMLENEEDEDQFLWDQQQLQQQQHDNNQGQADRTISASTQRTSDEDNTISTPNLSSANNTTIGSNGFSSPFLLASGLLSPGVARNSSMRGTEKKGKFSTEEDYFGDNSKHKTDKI
# T3: Boi1CRU (S. cerevisiae) (UniProt P38041)
# T3 sequence: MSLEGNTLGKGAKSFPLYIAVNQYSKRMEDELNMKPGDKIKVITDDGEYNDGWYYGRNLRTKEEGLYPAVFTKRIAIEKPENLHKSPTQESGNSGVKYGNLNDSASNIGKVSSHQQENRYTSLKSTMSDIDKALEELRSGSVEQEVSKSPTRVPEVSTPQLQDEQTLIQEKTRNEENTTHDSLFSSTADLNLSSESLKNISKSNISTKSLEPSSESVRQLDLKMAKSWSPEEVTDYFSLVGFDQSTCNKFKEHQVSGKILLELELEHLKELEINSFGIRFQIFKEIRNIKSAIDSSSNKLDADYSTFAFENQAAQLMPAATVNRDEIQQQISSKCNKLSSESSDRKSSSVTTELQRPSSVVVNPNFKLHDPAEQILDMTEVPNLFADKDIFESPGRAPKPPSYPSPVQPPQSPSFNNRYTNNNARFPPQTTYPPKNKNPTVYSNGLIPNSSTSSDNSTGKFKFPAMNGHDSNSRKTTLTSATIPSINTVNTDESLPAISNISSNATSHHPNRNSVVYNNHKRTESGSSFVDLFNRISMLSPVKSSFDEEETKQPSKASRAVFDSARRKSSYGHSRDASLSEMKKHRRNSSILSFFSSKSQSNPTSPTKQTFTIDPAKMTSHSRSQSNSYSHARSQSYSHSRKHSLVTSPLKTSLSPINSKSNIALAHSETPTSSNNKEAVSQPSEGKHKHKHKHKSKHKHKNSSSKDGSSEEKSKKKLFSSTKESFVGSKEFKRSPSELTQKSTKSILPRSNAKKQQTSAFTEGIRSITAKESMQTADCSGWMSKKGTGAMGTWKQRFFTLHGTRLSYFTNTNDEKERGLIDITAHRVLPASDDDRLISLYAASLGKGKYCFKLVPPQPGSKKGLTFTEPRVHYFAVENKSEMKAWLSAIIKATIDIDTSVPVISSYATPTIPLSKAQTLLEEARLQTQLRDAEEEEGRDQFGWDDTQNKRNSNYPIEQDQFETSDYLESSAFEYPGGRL
# T4: Sec6p CRU fusion (S. cerevisiae) (UniProt P32844)
# T4 sequence: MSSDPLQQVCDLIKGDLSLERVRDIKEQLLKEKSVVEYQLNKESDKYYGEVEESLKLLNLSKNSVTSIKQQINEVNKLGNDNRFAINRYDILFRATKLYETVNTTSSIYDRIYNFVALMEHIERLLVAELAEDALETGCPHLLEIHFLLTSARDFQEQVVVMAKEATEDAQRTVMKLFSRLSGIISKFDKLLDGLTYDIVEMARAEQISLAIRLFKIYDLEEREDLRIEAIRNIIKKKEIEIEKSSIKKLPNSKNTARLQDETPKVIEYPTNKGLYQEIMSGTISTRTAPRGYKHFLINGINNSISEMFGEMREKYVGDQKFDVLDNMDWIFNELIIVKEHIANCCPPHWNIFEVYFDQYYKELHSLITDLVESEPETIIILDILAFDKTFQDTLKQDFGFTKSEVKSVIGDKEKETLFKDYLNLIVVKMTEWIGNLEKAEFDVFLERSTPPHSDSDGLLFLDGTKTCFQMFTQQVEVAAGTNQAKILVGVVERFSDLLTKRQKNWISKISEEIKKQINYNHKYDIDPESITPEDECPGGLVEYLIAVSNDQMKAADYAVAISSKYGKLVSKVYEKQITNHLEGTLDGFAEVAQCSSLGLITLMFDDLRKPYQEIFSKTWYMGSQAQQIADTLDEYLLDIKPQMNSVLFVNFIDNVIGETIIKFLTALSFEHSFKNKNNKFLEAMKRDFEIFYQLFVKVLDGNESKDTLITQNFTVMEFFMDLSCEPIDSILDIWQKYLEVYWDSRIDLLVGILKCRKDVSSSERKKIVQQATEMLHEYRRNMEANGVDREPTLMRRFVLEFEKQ
# T5: Sec8p CRU fusion (S. cerevisiae) (UniProt P32855)
# T5 sequence: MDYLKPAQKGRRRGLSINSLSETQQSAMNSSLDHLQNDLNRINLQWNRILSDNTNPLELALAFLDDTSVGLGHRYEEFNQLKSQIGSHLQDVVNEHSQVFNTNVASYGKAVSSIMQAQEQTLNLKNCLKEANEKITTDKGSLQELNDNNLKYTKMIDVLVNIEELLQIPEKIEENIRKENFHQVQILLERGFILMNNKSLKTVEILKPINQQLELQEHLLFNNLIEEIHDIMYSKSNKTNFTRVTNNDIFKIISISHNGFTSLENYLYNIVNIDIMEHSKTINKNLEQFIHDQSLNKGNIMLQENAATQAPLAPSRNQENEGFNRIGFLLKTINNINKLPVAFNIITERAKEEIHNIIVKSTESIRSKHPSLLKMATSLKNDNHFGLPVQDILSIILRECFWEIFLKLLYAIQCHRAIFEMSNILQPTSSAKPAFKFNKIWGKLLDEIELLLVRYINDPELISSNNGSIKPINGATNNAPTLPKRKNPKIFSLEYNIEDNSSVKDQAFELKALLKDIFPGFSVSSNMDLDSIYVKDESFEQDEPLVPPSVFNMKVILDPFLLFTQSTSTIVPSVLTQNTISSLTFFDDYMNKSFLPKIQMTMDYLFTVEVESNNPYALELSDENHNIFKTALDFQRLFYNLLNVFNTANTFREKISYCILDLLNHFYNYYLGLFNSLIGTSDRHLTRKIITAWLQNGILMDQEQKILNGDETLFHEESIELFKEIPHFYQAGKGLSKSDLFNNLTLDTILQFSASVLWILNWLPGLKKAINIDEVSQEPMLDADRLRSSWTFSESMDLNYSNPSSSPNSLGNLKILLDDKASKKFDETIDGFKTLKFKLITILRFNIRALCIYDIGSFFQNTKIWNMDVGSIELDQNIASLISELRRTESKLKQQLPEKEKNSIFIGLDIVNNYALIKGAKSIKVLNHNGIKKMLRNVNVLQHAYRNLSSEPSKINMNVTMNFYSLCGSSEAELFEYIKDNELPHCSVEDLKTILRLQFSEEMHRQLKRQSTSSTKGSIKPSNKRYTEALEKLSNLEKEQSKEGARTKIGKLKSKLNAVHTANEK
# T6: Boi1Cherry-Cub-GFP (S. cerevisiae) (UniProt P38041)
# T6 sequence: T3 sequence
# B1: Nub-Boi2p (protein, UniProt P39969 1-1040)
# chain: T2 sequence
# B2: Nub-Bem1p (protein, UniProt P29366 1-551)
# chain: MLKNFKLSKRDSNGSKGRITSADISTPSHDNGSVIKHIKTVPVRYLSSSSTPVKSQRDSSPKNRHNSKDITSPEKVIKAKYSYQAQTSKELSFMEGEFFYVSGDEKDWYKASNPSTGKEGVVPKTYFEVFDRTKPSSVNGSNSSSRKVTNDSLNMGSLYAIVLYDFKAEKADELTTYVGENLFICAHHNCEWFIAKPIGRLGGPGLVPVGFVSIIDIATGYATGNDVIEDIKSVNLPTVQEWKSNIARYKASNISLGSVEQQQQQSITKPQNKSAKLVDGELLVKASVESFGLEDEKYWFLVCCELSNGKTRQLKRYYQDFYDLQVQLLDAFPAEAGKLRDAGGQWSKRIMPYIPGPVPYVTNSITKKRKEDLNIYVADLVNLPDYISRSEMVHSLFVVLNNGFDREFERDENQNNIKTLQENDTATFATASQTSNFASTNQDNTLTGEDLKLNKKLSDLSLSGSKQAPAQSTSGLKTTKIKFYYKDDIFALMLKGDTTYKELRSKIAPRIDTDNFKLQTKLFDGSGEEIKTDSQVSNIIQAKLKISVHDI
# B3: Nub-Ptc1p (protein, UniProt P35182 1-281)
# chain: MSNHSEILERPETPYDITYRVGVAENKNSKFRRTMEDVHTYVKNFASRLDWGYFAVFDGHAGIQASKWCGKHLHTIIEQNILADETRDVRDVLNDSFLAIDEEINTKLVGNSGCTAAVCVLRWELPDSVSDDSMDLAQHQRKLYTANVGDSRIVLFRNGNSIRLTYDHKASDTLEMQRVEQAGGLIMKSRVNGMLAVTRSLGDKFFDSLVVGSPFTTSVEITSEDKFLILACDGLWDVIDDQDACELIKDITEPNEAAKVLVRYALENGTTDNVTVMVVFL
# What was measured:
# [1] = target: T1, GST-SH3_(Boi1) (S. cerevisiae); assay: pull-down
# [2] = target: PH_(Boi1)CRU (S. cerevisiae) (UniProt P38041); assay: split reporter
# Boi2CRU (S. cerevisiae) [3] = target: T2, Boi2CRU (S. cerevisiae); assay: split reporter
# Boi1CRU (S. cerevisiae) [4] = target: T3, Boi1CRU (S. cerevisiae); assay: split reporter
# [5] = target: T4, Sec6p CRU fusion (S. cerevisiae); assay: split reporter
# [6] = target: Exo70p CRU fusion (S. cerevisiae) (UniProt P19658); assay: split reporter
# [7] = target: T5, Sec8p CRU fusion (S. cerevisiae); assay: split reporter
# Exo84CRU (S. cerevisiae) = Exo84CRU (S. cerevisiae) (UniProt P38261); assay: split reporter
# Boi2CRU (S. cerevisiae) [8] = target: T2, Boi2CRU (S. cerevisiae); assay: split reporter; remark: listed apart in the source
# Boi1CRU (S. cerevisiae) [9] = target: T3, Boi1CRU (S. cerevisiae); assay: split reporter; remark: listed apart in the source
# [10] = target: T6, Boi1Cherry-Cub-GFP (S. cerevisiae); assay: split reporter
molecule,measurement,setting,value
9xMYC fusion to Exo84p (from UniProt P38261 1-753),binding,[1],binds
Nub-Cdc42p (from UniProt P19073 1-191),binding,[2],binds
same,binding,Boi2CRU (S. cerevisiae) [3],binds
same,binding,Boi1CRU (S. cerevisiae) [4],binds
B1,binding,[5],binds
same,binding,[6],binds
same,binding,[7],binds
same,binding,Exo84CRU (S. cerevisiae),binds
B2,binding,Boi2CRU (S. cerevisiae) [8],binds
same,binding,Boi1CRU (S. cerevisiae) [9],binds
B3,binding,[10],no binding

# Source: doi:10.1101/144360 (bioRxiv, 2017)
